Assay results published in the supplement of paper PMC12889115.
Some of the results follow. These are raw signals, not scaled to a control.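 Primary screen: polymyxin B was added at a level permeabilizing Salmonella outer membranes while sparing inner membranes. DMSO wells, both with and without polymyxin B, established maximum growth. Plate-to-plate variation meant each plate was ranked on its own, and the lowest-OD600 compounds were selected as hits.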

Test system: Salmonella enterica serovar Typhimurium SL1344
Test: bacterial growth OD600 after 18 h with compound and polymyxin B; higher = more bacterial growth (less inhibition)
Conditions: 50 µM, Mueller-Hinton broth

Structure (SMILES) | bacterial growth OD600 (polymyxin B 0.75 µg/mL) | bacterial growth OD600 (polymyxin B 1 µg/mL)
CCC1(CCC(=O)NC(Cc2ccccc2)c2ccccc2)CCC(=O)N1 (configuration not stated) | 0.866 | –
CN(Cc1nc(-c2cccs2)no1)C1CCCc2ccccc21 (configuration not stated) | – | 0.886
Cc1c(CC(=O)NCC2CC2)c2c(n1CCc1ccccc1)CCCC2=O | – | 0.586
CC1CN(CCC(=O)NCCCOc2cccnc2)Cc2cc(Cl)ccc2O1 (configuration not stated) | 0.775 | –
CC1CN(CC(=O)NCc2cc(F)ccc2F)Cc2cc(Cl)ccc2O1 (configuration not stated) | 0.007 | –
O=C(CN1CCCCC1)N1CCc2onc(-c3cccc(F)c3)c2C1 | 0.857 | –
CCc1cc(C(=O)NCc2c(C)ncc3c2CCN(C(=O)c2cccc(-c4ccco4)c2)C3)no1 | 0.835 | –
COc1ccc(-c2nc(CN3CCN(Cc4ccc(F)cc4)C(=O)C3)c(C)o2)c(C)c1C | 0.003 | –
CCN1CCCC1CNC(=O)CCC1CCN(Cc2cccc(C(C)=O)c2)CC1 (configuration not stated) | – | 0.915
Cc1noc(C)c1C(=O)N1CCC2(CCCN(Cc3ccccc3F)C2=O)C1 (configuration not stated) | – | 1.15
CCOCC(O)CNc1nncc(-c2ccc(C)o2)n1 (configuration not stated) | 0.88 | –
CN(C(=O)c1ccco1)C(Cc1ccccc1Cl)C1CCN(Cc2cccc3c2OCO3)CC1 (configuration not stated) | 0.737 | –
CC(C)C1=NOC(C(=O)N2CCC(CCC(=O)Nc3ccccc3)CC2)C1 (configuration not stated) | – | 0.991
Cc1cc(C)n(CC(C)NC(=O)c2cn(Cc3ccccc3Cl)nn2)n1 (configuration not stated) | – | 0.866
CCn1cc(CNCc2cccnc2Oc2ccc(F)c(F)c2)cn1 | 0.8 | –
O=C(CCCc1ccccc1)Nc1cccc(N2CCC(NC(c3ccccn3)C(F)(F)F)CC2)c1 (configuration not stated) | 0.552 | –

Structure (SMILES) | bacterial growth OD600 (polymyxin B 0.75 µg/mL) | bacterial growth OD600 (polymyxin B 1 µg/mL)
COCc1ccc(C(=O)NC(C)c2cnn(-c3cccc(F)c3)c2C)s1 (configuration not stated) | – | 0.872
COc1cccc(-c2ccc(NC(=O)C3CCCN(Cc4ccccn4)C3)cc2)c1 (configuration not stated) | – | 0.845
Cc1nc(CN(C)c2nc3nonc3nc2NCc2cccs2)cs1 | – | 0.817
CC(C)c1ccc(NC2CCCN(C(=O)CCC(F)(F)F)C2)cc1 (configuration not stated) | – | 0.77
COc1cc(CC2(CCC(=O)NC(c3ccncc3)c3ccc(C)cc3)CCC(=O)N2)ccc1F (configuration not stated) | 0.929 | –
OCC1(CCCc2ccccc2)CCCN(Cc2ccc3nsnc3c2)C1 (configuration not stated) | 0.612 | –
CCNC(=O)c1cn(CCc2ccccc2)cc(C(=O)N2CCCC(c3ccccc3)C2)c1=O (configuration not stated) | 0.752 | –
CCOC(=O)C1(CCOc2ccccc2)CCN(Cc2ccc(O)c(OC)c2)CC1 | – | 0.97
CCCN(Cc1nc(Cc2ccccc2Cl)no1)CC1CC1 | – | 0.776
O=C(Nc1ccc(Oc2cccnc2)cc1)C1CCN(CC2CC=CCC2)CC1 (configuration not stated) | – | 0.755
O=C(CC(c1ccccc1)c1ccc(Cl)cc1)N1CCc2[nH]ncc2C1 (configuration not stated) | – | 0.667
O=C1N(Cc2cccc(Cl)c2)C[C@@H]2C[C@@H](c3ccc(F)cc3F)N3CCC[C@@]123 | 0.146 | –
O=C1CCC(C(=O)N2CCSCC2)CN1CCCN1CCOCC1 (configuration not stated) | – | 0.981
CN(Cc1ccc(Oc2ccccc2)cc1)C(=O)Cn1cc(NC(=O)CCC(=O)c2ccccc2)cn1 | 0.148 | –
COCCn1cc(C(=O)NCC2(c3ccccc3)CCCC2)c(=O)c(C(=O)N2CCCCC2C)c1 (configuration not stated) | 0.766 | –
Cc1ccc2c(c1)CN(C(=O)Cn1cc3ccccc3n1)CC(c1ccsc1)O2 (configuration not stated) | 0.001 | –

Taken from above.
CC(C)c1ccc(NC2CCCN(C(=O)CCC(F)(F)F)C2)cc1 (configuration not stated) | bacterial growth OD600 (polymyxin B 1 µg/mL): 0.77
CN(Cc1ccc(Oc2ccccc2)cc1)C(=O)Cn1cc(NC(=O)CCC(=O)c2ccccc2)cn1 | bacterial growth OD600 (polymyxin B 0.75 µg/mL): 0.148
CCOCC(O)CNc1nncc(-c2ccc(C)o2)n1 (configuration not stated) | bacterial growth OD600 (polymyxin B 0.75 µg/mL): 0.88
